Measurements published in PubChem BioAssay AID651795 (Broad Institute, 2012).
Inconclusive results, whose numbers are uncertain, are shown with a selection of clear calls. The source made the active and inactive calls.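 How the source made its calls: active means compounds whose fitted curve reaches 40% MLANA inhibition below twice the top dose tried; inconclusive means flat curve with 30 to 70% opposite effect, or poor fit; inactive means the rest.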

Experiment: inhibitors of MLANA mRNA expression, dose response, cell-based, RT-qPCR, SK-MEL-5, dry powder (AID 651795)
Conditions: SK-MEL-5 MLANA mRNA qPCR, delta delta Ct, overnight; at 35 µM (top of the series)

Row | Compound | MLANA expression inhibition
1 | O=C1C(Nc2cccc(Cl)c2)=C(N2CCCC2)C(=O)c2ccccc21 | inconclusive: 96.3%
2 | COC1=C(NS(=O)(=O)c2ccccc2)C(=O)c2ccccc2C1=O | inconclusive: 138%
3 | NC1=C(NS(=O)(=O)c2ccc(Br)cc2)C(=O)c2ccccc2C1=O | inconclusive: 32.5%
4 | NC1=C(NS(=O)(=O)c2ccc(Br)s2)C(=O)c2ccccc2C1=O | inactive: 31.6%
